Measurements from paper PMC7792611 (International Journal of Molecular Sciences, 2020).

Test: In vivo microdialysis in the dorsolateral striatum with LC-MS
Conditions: rat, measured simultaneously for comparison
Protocol: Adult male Sprague–Dawley rats (Harlan, Indianapolis, IN, USA) weighing between 250 and 350 g were used for all experiments (n = 6). Rats were housed in a temperature and humidity-controlled room with 12 h light/dark cycles with food and water available ad libitum. All animals were treated as approved by the University of Michigan Unit for Laboratory Animal Medicine (Protocol: 08516; approval date: 4 April 2011) and in accordance with the National Institute of Health (NIH) Guidelines for the Care and Use of Laboratory Animals. The number of animals used, and their suffering were minimized.
We performed in vivo microdialysis in the rat DLS and applied LC-MS analytical techniques to quantify brain concentrations of the deltorphin analogue BBI-11008, following systemic treatment, and of endogenous leu-enkephalin levels both before and after treatment. These experiments were performed in awake, freely moving rats, implanted with microdialysis probes in the DLS 24 h prior to the experiments. The animals were fully recovered, their wounds healed, and the probes were fixed in place with dental cement. […]

Substance: leu-enkephalin
- endogenous leu-enkephalin concentration in dorsolateral striatum dialysate: > 20 pM and < 20 pM

Values joined by “and” are separate entries in the source; they are usually repeats but may differ in a detail not shown here. Identical values can stand only once.
